# Measured values as given in PubChem BioAssay AID901 (National Center for Advancing Translational Sciences (NCATS), 2007).
# Some of the results follow. These are further read-outs of the screen, such as a control signal, another cell line or another target. No call is given for them. Most of these compounds were active or inconclusive in the main read-out, so they are no random draw. The note in brackets gives the kind of curve behind each potency; many fits are weak.
# Assay: qHTS Assay for Identifying the Cell-Membrane Permeable IMPase Inhibitors
# Settings: CHO-M1 cells, IP1 accumulation, HTRF TR-FRET ratio; measured here: donor channel 620 nm AC50
row,Structure (SMILES),AC50
1,Cc1ccc(N2CC(C(=O)N/N=C/c3cccc([N+](=O)[O-])c3)CC2=O)cc1 (stereo unspecified),"5.62 µM [rising, single point]"
2,CCOC(=O)c1cc(C)n(-n2cnnc2)c1C,"0.02 µM [falling, full curve, poor fit]"
3,c1ccc(CCNc2nc3ccccc3n3nnnc23)cc1,"6.31 µM [falling, single point]"
4,COc1ccc(Cc2nc3ccc(S(=O)(=O)N4CCOCC4)cc3[nH]2)cc1OC,"31.6 µM [rising, single point]"
5,CC(=O)CC1OC(=O)C(Br)=C1NCc1ccccc1 (stereo unspecified),"0.0501 µM [rising, full curve, poor fit]"
6,COc1cc(NC(=O)c2cccc(F)c2)ccc1NC(=O)c1cc2ccccc2o1,"35.5 µM [falling, single point]"
7,N#CCCSc1ncnc2c1oc1ccccc12,"12.6 µM [rising, partial curve]"
8,O=C(OCc1nnc(-c2ccccc2)o1)c1ccc2c(c1)C(=O)N(CCc1ccccc1)C2=O,"31.6 µM [rising, single point]"
9,COC(=O)C(C(=O)OC)=C(/C=C/N(C)C)N(C)C,"0.0794 µM [falling, full curve]"
10,O=C(CN1C(=O)C2CC=CCC2C1=O)OCCN1C(=O)c2ccccc2C1=O (stereo unspecified),"0.0631 µM [rising, full curve, poor fit]"
11,Cc1ccc(S(=O)(=O)NC(CC(=O)NCc2ccco2)c2ccco2)cc1 (stereo unspecified),"1.26 µM [falling, single point]"
12,COc1nc(C)nc2c1ccc1ccccc12,"0.2 µM [rising, single point]"
13,COc1cc(C(=O)Nc2ccc(NC(=O)c3ccc(Br)cc3)cc2)cc(OC)c1OC,"35.5 µM [rising, single point]"
14,Cc1ccn2c(NC(=O)c3cccs3)c(-c3ccccc3)nc2c1,"0.112 µM [falling, full curve, poor fit]"
15,Cn1c(-c2ccc(-c3ccccc3)cc2)c[nH]c1=S,"6.31 µM [falling, full curve, poor fit]"
16,O=C(NCc1ccccc1Cl)c1csc2c1CCCCC2,"10 µM [falling, partial curve, poor fit]"
17,O=C(CCCN1C(=O)c2ccccc2C1=O)Nc1ccccn1,"0.158 µM [falling, full curve, poor fit]"
18,Cc1nc2sccn2c(=O)c1S(=O)(=O)NCc1ccccc1,"3.16 µM [falling, partial curve, poor fit]"
19,CCOC(=O)C1CCN(CCC(=O)Nc2ccccc2Cl)CC1,"31.6 µM [falling, single point]"
20,O=C(Nc1ccccc1)C12CC3CC(C1)CC(n1cnc([N+](=O)[O-])n1)(C3)C2,"0.01 µM [rising, full curve, poor fit]"
21,COC1/C=C/OC2(C)Oc3c(C)c(O)c4c(O)c(c(/C=N/N5CCN(C)CC5)c(O)c4c3C2=O)NC(=O)/C(C)=C/C=C/C(C)C(O)C(C)C(O)C(C)C(OC(C)=O)C1C (stereo unspecified),"31.6 µM [falling, partial curve, poor fit]"

# Sorted by count of non-hydrogen atoms (largest number first): part of the list above
row,Structure (SMILES),AC50
6,COc1cc(NC(=O)c2cccc(F)c2)ccc1NC(=O)c1cc2ccccc2o1,"35.5 µM [falling, single point]"
1,Cc1ccc(N2CC(C(=O)N/N=C/c3cccc([N+](=O)[O-])c3)CC2=O)cc1 (stereo unspecified),"5.62 µM [rising, single point]"
3,c1ccc(CCNc2nc3ccccc3n3nnnc23)cc1,"6.31 µM [falling, single point]"

# (continued)

row,Structure (SMILES),AC50
1,CCOC(=O)CSc1nc2sc3c(c2c(=O)n1Cc1ccccc1)CC(C)CC3 (stereo unspecified),"0.00224 µM [rising, full curve]"
2,O=C(O)c1ccc2cccc(Cl)c2c1O,"15.8 µM [rising, single point]"
3,CCn1nccc1C(=O)Nc1ccc(Cl)c(Cl)c1,"0.0126 µM [falling, full curve]"
4,Cc1nnc(N2C(=O)C(O)=C(C(=O)c3ccco3)C2c2ccc(F)cc2)s1 (stereo unspecified),"15.8 µM [rising, partial curve]"
5,CCCCOc1ccc(-c2cc(C(=O)NNC(=S)NCC)c3ccccc3n2)cc1,"5.01 µM [falling, single point]"
6,O=C(CSc1nc(O)c(Cc2ccccc2F)c(=O)[nH]1)N1CCCCCC1,"12.6 µM [falling, partial curve, poor fit]"
7,CC(=O)N[C@@H](Cc1c[nH]c2ccccc12)C(=O)OCc1cc(C(F)(F)F)cc(C(F)(F)F)c1,"6.31 µM [falling, single point]"
8,Cc1ccc(C(=O)c2cn(-c3ccc(F)c(Cl)c3)nn2)cc1,"0.631 µM [rising, partial curve]"
9,COc1ccc(Cl)cc1NC(=O)CSc1nc2ccccc2nc1N1CCCCC1,"35.5 µM [rising, single point]"
10,COCCn1c(=NC(=O)c2ccco2)sc2cc(C(=O)OC)ccc21,"35.5 µM [rising, partial curve, poor fit]"
11,CCN(CC)c1ncnc2scc(C3COc4ccccc4O3)c12 (stereo unspecified),"20 µM [falling, partial curve, poor fit]"
12,CCOc1ccc(/C(O)=C2/C(=O)C(=O)N(CCOCCO)C2c2ccccn2)cc1 (stereo unspecified),"20 µM [rising, partial curve]"
13,Cc1ccc(OCc2ccc(C(=O)Nc3nccs3)o2)cc1,"3.16 µM [falling, single point]"
14,O=C(c1csc2c1CCCC2)N1CCN(c2cccc(C(F)(F)F)c2)CC1,"31.6 µM [falling, partial curve, poor fit]"
15,COc1ccc(-c2c(C(C)=O)c(C)nc3sc4c(c23)NC(c2ccccc2)NC4=O)cc1 (stereo unspecified),"12.6 µM [rising, single point]"
16,CC1=C(C(=O)NCc2ccccc2)C(c2cccs2)n2ncnc2N1 (stereo unspecified),"5.01 µM [falling, partial curve, poor fit]"
17,CCOc1ccc(NC(c2ccc(Cl)cc2)c2nnc(-c3cccc(F)c3)o2)cc1 (stereo unspecified),"4.47 µM [falling, partial curve]"
18,COc1cccc(CNCCc2c[nH]c3ccccc23)c1OCc1ccccc1F,"31.6 µM [rising, single point]"
19,CCCCNC(=O)CSc1nc(-c2ccc(OC)cc2)cc(C(F)(F)F)n1,"0.282 µM [falling, full curve]"
20,CCOC(=O)CN(Cc1ccccc1)S(=O)(=O)c1ccc(NC(C)=O)cc1,"0.0126 µM [rising, partial curve, poor fit]"
